# Laboratory results published in article PMC4112624.
# These are yes or no findings as the source states them, for the method shown. In cells and extracts the contact can be indirect. Some binding calls cover weakened binding; strength is not graded here.
# Molecular target: bZIP63 (UniProt B9DGI8)
# Test: split reporter; BiFC with split eYFP (pUC-SPYNE / pUC-SPYCE), transiently coexpressed in onion epidermal cells by particle bombardment; confocal microscopy after 48 h on MS medium
binder,measurement,value
"bZIP63 (protein, UniProt B9DGI8 1-314) MEKVFSDEEISGNHHWSVNGMTSLNRSASEWAFNRFIQESSAAADDGESTTACGVSVSSPPNVPVDSEEYRAFLKSKLNLACAAVAMKRGTFIKPQDTSGRSDNGGANESEQASLASSKATPMMSSAITSGSELSGDEEEADGETNMNPTNVKRVKRMLSNRESARRSRRRKQAHLSELETQVSQLRVENSKLMKGLTDVTQTFNDASVENRVLKANIETLRAKVKMAEETVKRLTGFNPMFHNMPQIVSTVSLPSETSNSPDTTSSQVTTPEIISSGNKGKALIGCKMNRTASMRRVESLEHLQKRIRSVGDQ",binding,binds
